# ± gives the standard deviation of the averaged measurements. Some of the results follow.
# By UniProt entry, the sequences of proteins in these tests, tags left out. Where a name states a change or a piece, a line headed by the entry shows the natural chain unless it says otherwise.
# UniProt Q9UI09, whole entry: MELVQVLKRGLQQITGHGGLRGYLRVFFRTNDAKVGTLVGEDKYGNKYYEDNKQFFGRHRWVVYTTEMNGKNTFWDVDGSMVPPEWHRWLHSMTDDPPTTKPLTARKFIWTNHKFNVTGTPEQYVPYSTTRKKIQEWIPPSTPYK
# UniProt Q9NVI1: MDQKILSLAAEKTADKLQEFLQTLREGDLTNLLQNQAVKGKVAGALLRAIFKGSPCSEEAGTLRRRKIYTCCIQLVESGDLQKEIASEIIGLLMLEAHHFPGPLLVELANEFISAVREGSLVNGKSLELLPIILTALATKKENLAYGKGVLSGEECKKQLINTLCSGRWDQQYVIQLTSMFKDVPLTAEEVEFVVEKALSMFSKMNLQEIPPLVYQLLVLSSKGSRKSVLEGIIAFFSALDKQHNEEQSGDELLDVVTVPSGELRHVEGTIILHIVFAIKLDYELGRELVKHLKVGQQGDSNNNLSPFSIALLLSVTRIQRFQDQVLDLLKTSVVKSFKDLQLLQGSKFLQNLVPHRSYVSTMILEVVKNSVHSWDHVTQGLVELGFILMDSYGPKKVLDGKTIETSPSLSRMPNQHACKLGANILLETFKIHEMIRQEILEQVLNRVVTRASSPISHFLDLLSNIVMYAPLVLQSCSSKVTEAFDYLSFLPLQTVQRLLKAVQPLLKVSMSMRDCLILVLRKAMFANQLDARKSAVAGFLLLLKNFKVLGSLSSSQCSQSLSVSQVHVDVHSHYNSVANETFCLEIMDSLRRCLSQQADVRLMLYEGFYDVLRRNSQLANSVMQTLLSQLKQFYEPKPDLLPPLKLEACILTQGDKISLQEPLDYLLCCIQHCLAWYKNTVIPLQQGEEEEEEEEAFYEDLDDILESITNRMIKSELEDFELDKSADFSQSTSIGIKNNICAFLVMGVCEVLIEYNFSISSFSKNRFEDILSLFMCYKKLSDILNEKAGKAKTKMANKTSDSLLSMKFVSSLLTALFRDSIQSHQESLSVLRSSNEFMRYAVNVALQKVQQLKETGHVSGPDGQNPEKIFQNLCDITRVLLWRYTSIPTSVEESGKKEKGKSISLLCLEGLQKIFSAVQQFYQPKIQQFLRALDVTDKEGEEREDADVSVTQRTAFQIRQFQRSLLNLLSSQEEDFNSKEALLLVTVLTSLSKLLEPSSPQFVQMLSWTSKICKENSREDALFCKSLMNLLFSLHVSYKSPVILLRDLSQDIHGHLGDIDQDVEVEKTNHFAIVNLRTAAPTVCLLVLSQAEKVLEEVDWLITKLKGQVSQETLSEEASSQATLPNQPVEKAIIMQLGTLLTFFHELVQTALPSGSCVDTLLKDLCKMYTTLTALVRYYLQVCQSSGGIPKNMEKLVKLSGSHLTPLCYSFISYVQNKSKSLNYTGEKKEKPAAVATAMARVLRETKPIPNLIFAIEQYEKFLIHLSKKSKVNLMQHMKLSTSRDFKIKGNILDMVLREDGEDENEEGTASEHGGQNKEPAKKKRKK
# UniProt Q9UEE9, whole entry: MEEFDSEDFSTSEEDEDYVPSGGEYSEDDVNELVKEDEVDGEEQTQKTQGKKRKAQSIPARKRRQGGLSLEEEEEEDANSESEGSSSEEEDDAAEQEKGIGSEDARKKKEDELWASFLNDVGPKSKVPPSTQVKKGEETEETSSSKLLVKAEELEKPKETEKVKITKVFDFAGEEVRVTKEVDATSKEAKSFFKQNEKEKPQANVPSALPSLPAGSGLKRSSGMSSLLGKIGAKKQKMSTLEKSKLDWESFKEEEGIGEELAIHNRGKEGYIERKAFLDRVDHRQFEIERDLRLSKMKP
# UniProt Q9NX46: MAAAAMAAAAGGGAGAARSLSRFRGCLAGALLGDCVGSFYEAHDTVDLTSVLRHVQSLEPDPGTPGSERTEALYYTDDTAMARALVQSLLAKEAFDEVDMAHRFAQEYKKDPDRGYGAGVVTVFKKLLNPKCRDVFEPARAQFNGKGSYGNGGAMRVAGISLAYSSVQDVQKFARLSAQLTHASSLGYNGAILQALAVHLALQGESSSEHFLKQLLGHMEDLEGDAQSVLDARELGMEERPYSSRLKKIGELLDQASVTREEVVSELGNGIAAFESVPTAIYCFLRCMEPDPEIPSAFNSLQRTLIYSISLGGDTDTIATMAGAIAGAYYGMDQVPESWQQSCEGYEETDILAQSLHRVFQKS
# UniProt Q9P2N6: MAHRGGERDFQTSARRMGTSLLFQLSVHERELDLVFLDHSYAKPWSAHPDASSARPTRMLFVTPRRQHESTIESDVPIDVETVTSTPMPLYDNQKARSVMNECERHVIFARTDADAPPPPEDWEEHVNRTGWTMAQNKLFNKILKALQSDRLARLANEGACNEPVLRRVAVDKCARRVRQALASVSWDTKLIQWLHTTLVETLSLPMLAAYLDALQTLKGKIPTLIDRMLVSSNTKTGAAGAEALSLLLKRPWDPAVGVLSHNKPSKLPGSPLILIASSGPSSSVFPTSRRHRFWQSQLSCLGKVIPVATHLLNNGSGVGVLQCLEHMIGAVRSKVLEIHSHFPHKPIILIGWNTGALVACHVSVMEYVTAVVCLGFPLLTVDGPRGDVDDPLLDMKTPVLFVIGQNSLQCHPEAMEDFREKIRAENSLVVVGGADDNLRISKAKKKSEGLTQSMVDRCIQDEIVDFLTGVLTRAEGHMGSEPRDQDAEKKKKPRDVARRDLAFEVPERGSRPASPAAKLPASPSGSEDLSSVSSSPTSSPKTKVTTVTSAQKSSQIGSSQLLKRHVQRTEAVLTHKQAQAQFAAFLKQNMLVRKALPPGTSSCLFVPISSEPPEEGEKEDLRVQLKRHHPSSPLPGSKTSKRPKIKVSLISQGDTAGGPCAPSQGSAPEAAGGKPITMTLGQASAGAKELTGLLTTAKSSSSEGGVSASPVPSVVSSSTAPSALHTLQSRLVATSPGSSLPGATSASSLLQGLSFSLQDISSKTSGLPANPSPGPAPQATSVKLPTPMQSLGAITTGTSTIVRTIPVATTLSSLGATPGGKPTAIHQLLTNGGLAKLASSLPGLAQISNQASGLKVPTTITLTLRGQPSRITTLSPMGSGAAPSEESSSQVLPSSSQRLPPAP
# UniProt Q9P1Z2: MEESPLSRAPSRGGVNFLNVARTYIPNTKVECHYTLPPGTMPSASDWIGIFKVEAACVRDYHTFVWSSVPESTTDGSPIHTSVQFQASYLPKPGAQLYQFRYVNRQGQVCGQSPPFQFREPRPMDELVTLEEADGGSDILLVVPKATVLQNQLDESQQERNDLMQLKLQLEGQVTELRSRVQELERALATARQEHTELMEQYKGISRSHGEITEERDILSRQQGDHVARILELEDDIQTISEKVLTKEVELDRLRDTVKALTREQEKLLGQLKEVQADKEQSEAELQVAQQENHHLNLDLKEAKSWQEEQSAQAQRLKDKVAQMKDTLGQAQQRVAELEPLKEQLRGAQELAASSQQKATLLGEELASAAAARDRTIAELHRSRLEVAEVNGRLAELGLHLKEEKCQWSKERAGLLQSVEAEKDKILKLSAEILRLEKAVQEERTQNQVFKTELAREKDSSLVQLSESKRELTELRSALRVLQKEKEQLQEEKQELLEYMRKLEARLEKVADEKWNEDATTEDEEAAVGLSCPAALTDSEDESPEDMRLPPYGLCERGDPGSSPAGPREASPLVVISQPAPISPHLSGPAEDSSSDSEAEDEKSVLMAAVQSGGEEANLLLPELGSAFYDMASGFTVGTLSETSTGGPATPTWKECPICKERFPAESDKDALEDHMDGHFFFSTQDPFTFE
# UniProt Q9P016: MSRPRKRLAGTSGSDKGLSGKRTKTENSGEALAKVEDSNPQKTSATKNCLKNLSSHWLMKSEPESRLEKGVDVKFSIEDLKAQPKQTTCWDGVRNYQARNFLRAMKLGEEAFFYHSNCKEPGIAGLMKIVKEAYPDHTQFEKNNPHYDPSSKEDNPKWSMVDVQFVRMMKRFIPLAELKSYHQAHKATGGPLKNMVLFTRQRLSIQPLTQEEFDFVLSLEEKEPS
# UniProt Q9UHV9, whole entry: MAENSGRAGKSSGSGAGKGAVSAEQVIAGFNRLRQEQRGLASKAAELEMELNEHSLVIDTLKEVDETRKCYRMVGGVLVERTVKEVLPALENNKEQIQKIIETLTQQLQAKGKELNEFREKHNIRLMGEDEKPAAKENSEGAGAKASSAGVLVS
# UniProt Q9UI12, whole entry: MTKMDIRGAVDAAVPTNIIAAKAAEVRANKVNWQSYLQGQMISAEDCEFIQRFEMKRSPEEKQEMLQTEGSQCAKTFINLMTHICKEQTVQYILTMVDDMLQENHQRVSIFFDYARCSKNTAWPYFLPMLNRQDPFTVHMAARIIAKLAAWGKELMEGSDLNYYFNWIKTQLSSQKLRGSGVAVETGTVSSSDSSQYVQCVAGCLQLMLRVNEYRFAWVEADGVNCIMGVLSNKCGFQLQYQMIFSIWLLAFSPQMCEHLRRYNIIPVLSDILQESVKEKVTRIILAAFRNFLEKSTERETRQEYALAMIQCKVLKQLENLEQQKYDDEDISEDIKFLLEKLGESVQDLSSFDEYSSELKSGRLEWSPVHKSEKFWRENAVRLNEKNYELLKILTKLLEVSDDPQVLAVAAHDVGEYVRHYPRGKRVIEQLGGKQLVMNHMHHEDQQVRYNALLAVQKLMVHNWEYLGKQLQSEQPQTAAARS
# UniProt Q9NX62: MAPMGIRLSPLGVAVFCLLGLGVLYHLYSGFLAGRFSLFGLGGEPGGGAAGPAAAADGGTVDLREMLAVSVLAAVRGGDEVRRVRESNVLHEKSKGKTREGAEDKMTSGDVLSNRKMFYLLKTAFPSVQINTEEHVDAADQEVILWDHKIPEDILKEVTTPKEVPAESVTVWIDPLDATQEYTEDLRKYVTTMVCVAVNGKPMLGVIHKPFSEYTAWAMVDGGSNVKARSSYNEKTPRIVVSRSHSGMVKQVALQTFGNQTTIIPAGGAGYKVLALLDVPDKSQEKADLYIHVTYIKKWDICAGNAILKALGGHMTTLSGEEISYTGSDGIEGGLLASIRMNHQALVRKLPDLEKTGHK
# UniProt Q9NX14, whole entry: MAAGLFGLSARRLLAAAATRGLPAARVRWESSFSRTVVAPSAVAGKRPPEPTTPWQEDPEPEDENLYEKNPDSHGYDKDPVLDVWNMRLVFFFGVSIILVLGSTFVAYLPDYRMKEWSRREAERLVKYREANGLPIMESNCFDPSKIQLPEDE
# UniProt Q9UL15: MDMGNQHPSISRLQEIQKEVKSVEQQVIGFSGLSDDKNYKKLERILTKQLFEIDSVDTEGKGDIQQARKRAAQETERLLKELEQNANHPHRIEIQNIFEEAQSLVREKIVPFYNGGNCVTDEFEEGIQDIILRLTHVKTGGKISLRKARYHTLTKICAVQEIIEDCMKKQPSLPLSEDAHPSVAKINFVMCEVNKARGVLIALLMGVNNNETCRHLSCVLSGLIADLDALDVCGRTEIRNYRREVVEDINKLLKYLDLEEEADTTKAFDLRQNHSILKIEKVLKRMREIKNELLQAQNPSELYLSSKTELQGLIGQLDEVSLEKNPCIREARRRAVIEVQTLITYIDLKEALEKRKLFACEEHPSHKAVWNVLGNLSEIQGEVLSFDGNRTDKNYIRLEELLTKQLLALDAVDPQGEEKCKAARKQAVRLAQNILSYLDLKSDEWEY
# UniProt Q9P2A4: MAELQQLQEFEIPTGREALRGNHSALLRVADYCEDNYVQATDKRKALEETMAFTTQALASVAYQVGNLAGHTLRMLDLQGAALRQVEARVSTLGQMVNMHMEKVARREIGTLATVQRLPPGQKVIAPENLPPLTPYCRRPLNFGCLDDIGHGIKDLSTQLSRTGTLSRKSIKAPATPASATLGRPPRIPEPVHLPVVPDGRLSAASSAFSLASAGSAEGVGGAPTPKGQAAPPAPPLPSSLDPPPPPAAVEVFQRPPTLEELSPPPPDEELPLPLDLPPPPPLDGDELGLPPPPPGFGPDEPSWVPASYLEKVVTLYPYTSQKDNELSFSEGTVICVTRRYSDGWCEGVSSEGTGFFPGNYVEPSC
# UniProt Q9P0U4, whole entry: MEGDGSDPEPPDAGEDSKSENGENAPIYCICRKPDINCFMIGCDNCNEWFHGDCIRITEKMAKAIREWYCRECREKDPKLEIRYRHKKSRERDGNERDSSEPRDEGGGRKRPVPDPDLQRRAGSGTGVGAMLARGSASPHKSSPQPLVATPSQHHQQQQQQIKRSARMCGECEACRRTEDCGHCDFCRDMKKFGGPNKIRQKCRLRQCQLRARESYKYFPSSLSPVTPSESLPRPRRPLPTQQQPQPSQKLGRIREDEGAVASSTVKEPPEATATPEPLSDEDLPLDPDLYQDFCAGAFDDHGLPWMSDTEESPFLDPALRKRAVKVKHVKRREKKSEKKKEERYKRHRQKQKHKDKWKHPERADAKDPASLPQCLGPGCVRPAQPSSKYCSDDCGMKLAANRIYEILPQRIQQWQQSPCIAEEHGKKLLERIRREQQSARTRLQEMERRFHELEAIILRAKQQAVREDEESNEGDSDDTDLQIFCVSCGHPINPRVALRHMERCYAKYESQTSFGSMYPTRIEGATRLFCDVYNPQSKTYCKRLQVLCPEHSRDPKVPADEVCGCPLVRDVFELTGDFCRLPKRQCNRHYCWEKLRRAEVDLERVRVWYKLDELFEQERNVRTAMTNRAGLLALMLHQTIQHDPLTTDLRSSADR
# Compound: Nc1nc2c(ncn2[C@@H]2O[C@H](COP(=O)(O)OP(=O)(O)OP(=O)(O)O)[C@@H](O)[C@H]2O)c(=O)[nH]1 [guanosine triphosphate]
# Experiment: NP40-soluble protein abundance relative to vehicle (solubility fold change) (ratio); higher = more soluble protein in presence of GTP
# Outline: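 Crude Jurkat lysate, prepared by Dounce homogenisation, was exposed to eight concentrations from 0.1 to 10 mM for 10 min at room temperature and then 3 min at 37 °C. Solubilisation used 0.8% NP40 with benzonase for 60 min at 4 °C, followed by ultracentrifugation and TMT labelling of the supernatant for LC-MS/MS. After vsn normalisation of intensities, each value is the fold change against the detergent-processed vehicle within each replicate, across three independent experiments.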
Target,NP40-soluble protein abundance (concentration: 0.1mM),NP40-soluble protein abundance (concentration: 0.5mM),NP40-soluble protein abundance (concentration: 1mM),NP40-soluble protein abundance (concentration: 2mM),NP40-soluble protein abundance (concentration: 4mM),NP40-soluble protein abundance (concentration: 6mM),NP40-soluble protein abundance (concentration: 8mM),NP40-soluble protein abundance (concentration: 10mM)
IGF2BP1 (UniProt Q9NZI8),0.962 ± 0.018,0.989 ± 0.01,0.965 ± 0.035,0.957 ± 0.057,0.958 ± 0.054,0.982 ± 0.059,0.978 ± 0.044,0.971 ± 0.06
ZMYM2 (UniProt Q9UBW7),1.07 ± 0.065,1.09 ± 0.066,1.04 ± 0.053,1.11 ± 0.11,1.16 ± 0.13,1.14 ± 0.089,1.22 ± 0.19,1.16 ± 0.14
NDUFA12 (UniProt Q9UI09),1.04 ± 0.12,1.07 ± 0.12,1.02 ± 0.11,1.09 ± 0.18,1.11 ± 0.14,1.12 ± 0.15,1.11 ± 0.14,1.1 ± 0.2
FANCI (UniProt Q9NVI1),1.02 ± 0.018,1.03 ± 0.062,0.968 ± 0.032,0.98 ± 0.062,0.958 ± 0.054,0.981 ± 0.034,0.967 ± 0.027,0.955 ± 0.039
CFDP1 (UniProt Q9UEE9),0.899 ± 0.11,0.913 ± 0.14,0.953 ± 0.13,0.882 ± 0.18,0.854 ± 0.17,0.894 ± 0.18,0.923 ± 0.093,0.923 ± 0.12
MED13 (UniProt Q9UHV7),1.02 ± 0.059,0.995 ± 0.14,1.04 ± 0.091,1.03 ± 0.067,1.09 ± 0.085,1.08 ± 0.11,1.09 ± 0.1,1.09 ± 0.12
UniProt Q9UHD8 and related entries,0.974 ± 0.026,1.021 ± 0.0087,0.9813 ± 0.0091,0.967 ± 0.013,0.957 ± 0.014,0.966 ± 0.019,0.962 ± 0.011,0.944 ± 0.02
ADPRHL2 (UniProt Q9NX46),0.991 ± 0.021,0.955 ± 0.017,0.95 ± 0.019,0.931 ± 0.056,0.934 ± 0.06,0.907 ± 0.039,0.889 ± 0.079,0.931 ± 0.034
UniProt Q9P2N6 and related entries,1.02 ± 0.033,1.02 ± 0.062,1.08 ± 0.024,1.12 ± 0.038,1.16 ± 0.02,1.14 ± 0.054,1.26 ± 0.13,1.19 ± 0.16
CGGBP1 (UniProt Q9UFW8),0.87 ± 0.029,0.821 ± 0.048,1.02 ± 0.023,1.04 ± 0.048,1.07 ± 0.04,1.11 ± 0.058,1.04 ± 0.11,1.18 ± 0.019
UniProt Q9P1Z2 and related entries,0.975 ± 0.09,0.932 ± 0.1,0.964 ± 0.087,0.925 ± 0.16,0.937 ± 0.14,0.935 ± 0.12,0.932 ± 0.017,0.944 ± 0.12
UniProt Q9NX55,1 ± 0.095,0.977 ± 0.11,1.02 ± 0.091,0.995 ± 0.073,1 ± 0.097,1.04 ± 0.081,1.11 ± 0.098,1.08 ± 0.017
THYN1 (UniProt Q9P016),0.869 ± 0.068,0.838 ± 0.021,1.01 ± 0.085,1.06 ± 0.012,1.12 ± 0.043,1.1 ± 0.034,1.08 ± 0.11,1.23 ± 0.058
CDC23 (UniProt Q9UJX2),1.07 ± 0.097,1.11 ± 0.15,1.11 ± 0.18,1.21 ± 0.23,1.2 ± 0.21,1.19 ± 0.22,1.19 ± 0.21,1.17 ± 0.24
PFDN2 (UniProt Q9UHV9),0.943 ± 0.029,0.946 ± 0.0096,1.06 ± 0.043,1.03 ± 0.017,0.996 ± 0.1,1.04 ± 0.057,1.04 ± 0.06,1.17 ± 0.044
UniProt Q9UI12 and related entries,0.987 ± 0.021,1.01 ± 0.017,0.9996 ± 0.0053,0.99 ± 0.033,1.03 ± 0.048,1 ± 0.036,1.03 ± 0.064,1.02 ± 0.071
DIP2B (UniProt Q9P265),1.01 ± 0.03,0.997 ± 0.034,0.951 ± 0.018,0.982 ± 0.043,0.973 ± 0.044,0.969 ± 0.031,0.958 ± 0.041,0.924 ± 0.049
UniProt Q9P2X0-2,0.92 ± 0.02,0.84 ± 0.041,0.822 ± 0.1,0.903 ± 0.077,0.932 ± 0.071,0.933 ± 0.061,0.811 ± 0.016,0.899 ± 0.055
UniProt Q9UKU0-9,1.04 ± 0.065,1.02 ± 0.028,1.04 ± 0.097,1.03 ± 0.035,1.05 ± 0.14,1.01 ± 0.055,1.02 ± 0.075,1.1 ± 0.098
IMPAD1 (UniProt Q9NX62),0.98 ± 0.07,0.949 ± 0.061,0.956 ± 0.07,0.863 ± 0.065,0.883 ± 0.081,0.875 ± 0.079,0.924 ± 0.086,0.865 ± 0.073
UniProt Q9NX14 and related entries,0.842 ± 0.067,0.855 ± 0.11,1.07 ± 0.023,1.01 ± 0.052,1 ± 0.054,1.07 ± 0.031,1 ± 0.059,1.12 ± 0.076
UniProt Q9UL15 and related entries,0.957 ± 0.068,0.945 ± 0.052,0.932 ± 0.043,0.939 ± 0.044,0.881 ± 0.025,0.907 ± 0.084,0.857 ± 0.052,0.877 ± 0.056
NUDT15 (UniProt Q9NV35),0.931 ± 0.046,0.917 ± 0.07,1 ± 0.073,0.937 ± 0.035,0.919 ± 0.095,0.9 ± 0.095,0.891 ± 0.11,0.872 ± 0.067
UniProt Q9NVK5 and related entries,0.987 ± 0.072,0.945 ± 0.1,1.16 ± 0.17,1.11 ± 0.086,1.13 ± 0.1,1.19 ± 0.092,1.28 ± 0.17,1.27 ± 0.2
UVRAG (UniProt Q9P2Y5),1.015 ± 0.0045,1.087 ± 0.0022,0.995 ± 0.021,1.06 ± 0.06,0.998 ± 0.033,1 ± 0.059,0.997 ± 0.023,0.998 ± 0.045
MRPL39 (UniProt Q9NYK5),1.09 ± 0.096,1.18 ± 0.19,1.22 ± 0.26,1.35 ± 0.33,1.32 ± 0.35,1.3 ± 0.37,1.26 ± 0.27,1.2 ± 0.3
NOB1 (UniProt Q9ULX3),1.02 ± 0.029,1.04 ± 0.046,1.07 ± 0.1,1.08 ± 0.11,1.08 ± 0.11,1.03 ± 0.11,1.05 ± 0.16,1.02 ± 0.15
UniProt Q9P2A4 and related entries,0.995 ± 0.054,1.03 ± 0.037,0.999 ± 0.077,0.999 ± 0.025,1.02 ± 0.045,1.05 ± 0.067,0.96 ± 0.11,1.06 ± 0.036
UniProt Q9P0U4 and related entries,1.03 ± 0.031,1.08 ± 0.072,1.046 ± 0.0026,1.1 ± 0.078,1.09 ± 0.02,1.09 ± 0.089,1.1 ± 0.052,1.07 ± 0.029
UniProt Q9P0J1 and related entries,1.03 ± 0.058,1.02 ± 0.079,0.938 ± 0.033,1.06 ± 0.019,1.04 ± 0.025,0.968 ± 0.058,0.95 ± 0.047,0.911 ± 0.065

# As a short view, some entries already given:
Target,NP40-soluble protein abundance (concentration: 0.1mM),NP40-soluble protein abundance (concentration: 0.5mM),NP40-soluble protein abundance (concentration: 1mM),NP40-soluble protein abundance (concentration: 2mM),NP40-soluble protein abundance (concentration: 4mM),NP40-soluble protein abundance (concentration: 6mM),NP40-soluble protein abundance (concentration: 8mM),NP40-soluble protein abundance (concentration: 10mM)
UniProt Q9NX55,1 ± 0.095,0.977 ± 0.11,1.02 ± 0.091,0.995 ± 0.073,1 ± 0.097,1.04 ± 0.081,1.11 ± 0.098,1.08 ± 0.017
THYN1 (UniProt Q9P016),0.869 ± 0.068,0.838 ± 0.021,1.01 ± 0.085,1.06 ± 0.012,1.12 ± 0.043,1.1 ± 0.034,1.08 ± 0.11,1.23 ± 0.058
